Paper PMC8766426
Results are given in words; binding and its absence hold for the method and conditions named. Some entries that bind do so weakly or less than the wild type.

By UniProt entry, the sequences of proteins in these tests, tags left out. Residues count along the entry.
UniProt Q3UH93, residues 49-1925: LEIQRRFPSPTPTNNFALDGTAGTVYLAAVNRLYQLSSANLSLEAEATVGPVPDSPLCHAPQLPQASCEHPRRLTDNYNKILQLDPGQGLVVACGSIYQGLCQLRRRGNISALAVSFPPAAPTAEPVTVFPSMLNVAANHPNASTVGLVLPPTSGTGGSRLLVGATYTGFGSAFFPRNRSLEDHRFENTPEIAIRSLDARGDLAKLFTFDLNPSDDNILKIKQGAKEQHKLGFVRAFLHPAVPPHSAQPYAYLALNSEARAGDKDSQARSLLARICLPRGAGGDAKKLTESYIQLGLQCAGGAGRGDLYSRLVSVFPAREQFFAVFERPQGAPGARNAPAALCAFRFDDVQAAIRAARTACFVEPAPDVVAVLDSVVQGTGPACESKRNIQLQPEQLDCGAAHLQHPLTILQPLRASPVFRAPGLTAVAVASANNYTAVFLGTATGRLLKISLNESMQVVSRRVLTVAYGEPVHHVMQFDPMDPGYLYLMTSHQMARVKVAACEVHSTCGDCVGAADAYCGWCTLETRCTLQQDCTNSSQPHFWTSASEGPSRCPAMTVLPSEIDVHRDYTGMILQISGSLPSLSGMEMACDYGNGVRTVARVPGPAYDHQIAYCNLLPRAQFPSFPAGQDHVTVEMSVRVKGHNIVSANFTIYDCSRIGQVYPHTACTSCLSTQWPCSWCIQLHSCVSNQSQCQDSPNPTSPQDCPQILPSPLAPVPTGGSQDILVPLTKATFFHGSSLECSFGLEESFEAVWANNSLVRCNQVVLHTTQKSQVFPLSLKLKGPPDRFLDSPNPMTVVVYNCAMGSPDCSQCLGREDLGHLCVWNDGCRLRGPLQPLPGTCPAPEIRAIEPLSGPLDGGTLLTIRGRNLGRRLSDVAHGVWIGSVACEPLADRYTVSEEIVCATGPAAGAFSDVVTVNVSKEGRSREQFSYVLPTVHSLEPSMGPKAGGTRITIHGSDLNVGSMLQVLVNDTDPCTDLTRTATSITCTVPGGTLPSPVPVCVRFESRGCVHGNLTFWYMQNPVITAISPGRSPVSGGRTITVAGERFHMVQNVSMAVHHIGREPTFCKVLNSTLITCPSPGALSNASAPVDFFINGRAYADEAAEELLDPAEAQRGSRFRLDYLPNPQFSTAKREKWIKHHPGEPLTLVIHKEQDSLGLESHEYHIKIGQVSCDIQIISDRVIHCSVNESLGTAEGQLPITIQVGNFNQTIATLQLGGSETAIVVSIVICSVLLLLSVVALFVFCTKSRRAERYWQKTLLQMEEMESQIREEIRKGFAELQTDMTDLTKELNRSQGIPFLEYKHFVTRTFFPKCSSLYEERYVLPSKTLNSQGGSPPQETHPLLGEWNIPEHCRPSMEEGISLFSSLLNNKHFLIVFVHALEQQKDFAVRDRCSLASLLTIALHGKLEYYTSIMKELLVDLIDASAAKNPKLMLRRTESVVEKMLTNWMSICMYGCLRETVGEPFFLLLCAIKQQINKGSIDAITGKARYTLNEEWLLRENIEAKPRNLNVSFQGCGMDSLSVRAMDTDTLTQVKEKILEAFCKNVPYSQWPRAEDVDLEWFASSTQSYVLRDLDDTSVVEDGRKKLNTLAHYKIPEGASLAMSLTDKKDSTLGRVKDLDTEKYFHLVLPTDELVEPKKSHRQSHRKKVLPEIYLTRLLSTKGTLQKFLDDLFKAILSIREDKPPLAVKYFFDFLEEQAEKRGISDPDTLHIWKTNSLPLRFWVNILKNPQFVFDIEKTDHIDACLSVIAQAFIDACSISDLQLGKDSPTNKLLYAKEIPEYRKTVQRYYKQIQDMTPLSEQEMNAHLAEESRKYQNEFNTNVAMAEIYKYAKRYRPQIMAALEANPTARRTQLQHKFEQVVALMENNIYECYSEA

Biological target: Plexin-D1 (mouse (endogenous in brain sections)) (UniProt Q3UH93)
Experiment: alkaline phosphatase-ligand binding on tissue sections; 20-um mouse brain cryosections fixed in cold methanol; 2 nM AP-Sema3E in 1x PBS-MgCl2 plus 20 mM HEPES pH 7.0, 2 h at room temperature; heat inactivation at 65 C; AP developed with NBT/BCIP; sections of sham, post-tMCAo and Plxnd1 iECKO mice

binding: binds
B1: AP-conjugated Sema3E ligand (alkaline phosphatase-Semaphorin 3E) (ligand, UniProt P70275 26-775)
chain: ANPSYPRLRLSHKELLELNRTSIFQSPLGFLDLHTMLLDEYQERLFVGGRDLVYSLNLERVSDGYREIYWPSTAVKVEECIMKGKDANECANYIRVLHHYNRTHLLTCATGAFDPHCAFIRVGHHSEEPLFHLESHRSERGRGRCPFDPNSSFVSTLVGNELFAGLYSDYWGRDSAIFRSMGKLGHIRTEHDDERLLKEPKFVGSYMIPDNEDRDDNKMYFFFTEKALEAENNAHTIYTRVGRLCVNDMGGQRILVNKWSTFLKARLVCSVPGMNGIDTYFDELEDVFLLPTRDPKNPVIFGLFNTTSNIFRGHAVCVYHMSSIREAFNGPYAHKEGPEYHWSLYEGKVPYPRPGSCASKVNGGKYGTTKDYPDDAIRFARMHPLMYQPIKPVHKKPILVKTDGKYNLRQLAVDRVEAEDGQYDVLFIGTDTGIVLKVITIYNQETEWMEEVILEELQIFKDPAPIISMEISSKRQQLYIGSASAVAQVRFHHCDMYGSACADCCLARDPYCAWDGISCSRYYPTGAHAKRRFRRQDVRHGNAAQQCFGQQFVGDALDRTEERLAYGIESNSTLLECTPRSLQAKVIWFVQKGRDVRKEEVKTDDRVVKMDLGLLFLRVRKSDAGTYFCQTVEHNFVHTVRKITLEVVEEHKVEGMFHKDHEEERHHKMPCPPLSGMSQGTKPWYKEFLQLIGYSNFQRVEEYCEKVWCTDKKRKKLKMSPSKWKYANPQEKRLRSKAEHFRLPRHTLLS
